Most values lie at the floor of the assay. Slopes are relative: functional sequences can read slightly below zero.

The subject of the series is Saccharomyces cerevisiae PS128 hsf1 delta, HSF1(1-493) fusion. The experiment in a line: growth estimate (transactivation domain function in HSF1 fusion, heat-shock survival) (a.u. (slope of normalised read count over time)); higher = stronger growth at 37°C, i.e. more transactivation activity. The note with it: library: random library. As for the experimental part:
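Random 60-nt DNA library encoding peptides of up to 20 aa, fused to the C-terminus of yeast HSF1 residues 1-493 (C-terminal TAD deleted) and expressed from the native HSF1 promoter on a CEN plasmid in hsf1-deleted S. cerevisiae PS128. Cells were selected at 37°C on -trp 5-FOA plates for 0, 2, 4, 6 and 8 days and amplicons were sequenced. Growth estimate is the slope of a robust linear fit of total-sum-normalised read counts (normalised to the first time point) over time, using at least 2 replicates. Sequences are classed functional (TAD activity) above a threshold of -0.13, set from stop-codon control sequences.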
For TLWKPQ, the growth estimate is < -0.25. As for VMSESAVISSTVKVIRL, the figure is < -0.25; as for WISSEGRVLDADWRARHRDG, < -0.25; as for PLERAVEMGGGPHRRRYVFR, < -0.25. Consider RVLKISSHGRGS, for which the growth estimate is < -0.25.

Consider HEIGGCRGISA, for which the growth estimate was < -0.25. Next, PLVLPWTSTSGGETVLL: < -0.25. As to NEVFDGQRHTSESGGCSPGC, the growth estimate is < -0.25.

For the substance EPSQSRPGIVVEGLKF, the growth estimate is < -0.25. Next, VSEWELSRVKESWPSVVYGV: < -0.25; DSN: < -0.25; QMDPVR: < -0.25.

With TAQQAACAKWS, the growth estimate is < -0.25.

Regarding GEEV, the growth estimate was < -0.25. As for RIRGNRGFRFQPENVGIN, the figure is < -0.25; as for GARAPRNTEYQSPQPPWHHS, < -0.25; as for SVFSTGLH, < -0.25. As for VLD, the figure is < -0.25; as for RSRFFEPS, < -0.25; as for FMSLVPGGLL, < -0.25. As to IQSYWSSGQ, the growth estimate was < -0.25. MSIVLMRYVKVHASFPRRRC: the growth estimate was < -0.25. As for YHPAGPYIRTRLTYRSCQFI, the figure is < -0.25; as for CISRMLMVQGVMQRRPSLLH, < -0.25. Next, LMARMATNYRVMS: < -0.25; TSNRCARGVTPLVPRHCIQR: < -0.25. Take DRNAGEKARVSSLLARGSAL: the growth estimate was < -0.25. Next, QSVWIAR: < -0.25; RSICARPPGSVLLHSRFKIS: < -0.25.

Regarding FYYSGIAGLLSAHMSEPTCT, the growth estimate was < -0.25. As for RGLTSLEGLSV, the figure is < -0.25. QRGREGQGSLFEQDSLY: the growth estimate was < -0.25. As for PGLRTKVYSAQQIANLIFSA, the figure is < -0.25; as for GACGPSIRHSGQQQGPTR, < -0.25; as for VGRKFVETVGVSPLPVYGRP, < -0.25.

Consider LGVKSIEEKLR, for which the growth estimate is < -0.25.

HLMPEPALQASGRITEVLC: the growth estimate was < -0.25.

Regarding MPRSQQHRIMMTPGSDRRIH, the growth estimate was < -0.25. Next, PWPMTPRAERPLLTTCRANR: < -0.25; IVSPRHLLKGSVDNRFASFP: < -0.25.

With AVVDAAHMDAWQIRERAGRK, the growth estimate was < -0.25. Next, TRIFKAPQL: < -0.25. As for EKPSSNPDGTISLLRKHWPQ, the figure is < -0.25; as for NLVVGGCDGHQNHLSL, < -0.25. Take RSVTYFFE: the growth estimate is < -0.25. Next, FFEINVYCSVSHVLLLKWWR: < -0.25. As for EVRSSSTPKR, the figure is < -0.25; as for IVYNV, < -0.25; as for RYVKLFKIKDVPTVLISQAG, < -0.25.

As for RAWSFASNLID, the growth estimate is < -0.25. As for PYYGNLQYDQREGHKCRVLE, the figure is < -0.25; as for GEKPGGAFFHGPARPTGTRG, < -0.25. As for SLKSISPMRFPTASGCQEVR, the figure is < -0.25; as for GSALAFFLPVRGWYWPPGTN, < -0.25; as for RVWWKGASRWIEIRPGQGCP, < -0.25. As for RVLLK, the figure is < -0.25. As to HSCQRLKCKHSQG, the growth estimate was < -0.25. As for GMRYAIGLSVERHLG, the growth estimate is < -0.25. Take QKHRRAHLLQPVGALFFGKR: the growth estimate is < -0.25.

With SGKTREVSDSAISEWYREMA, the growth estimate was < -0.25. Next, LRLTQFRDNSSMRGSVITVQ: < -0.25. Next, SVLKVVCS: < -0.25. For the substance GGNTPGGRVFDCC, the growth estimate was < -0.25. Next, GSFA: < -0.25; CRLSYWGGLPFALAKRVCFL: < -0.25; GARFLTVRDALISPVFCYWW: < -0.25.

Consider RAGK, for which the growth estimate was < -0.25. Next, SKMLGHIADQMPAMPKACDG: < -0.25. As for EPSGDFTDHNG, the figure is < -0.25. Turning to GLCREKHATG, the growth estimate is < -0.25.

In the case of SLGLTNVRLPVWNRVTLNVL, the growth estimate is < -0.25. As to PSKVSATG, the growth estimate was < -0.25.

For the substance GPRCRETGCHGIR, the growth estimate is < -0.25. With RCANRGARPSVSGECFVRLV, the growth estimate is < -0.25. Next, RSDQSIINLTGAYGSDGLLV: < -0.25.

KWNTNYFPCGPRQTPSLRPV: the growth estimate was < -0.25. Next, RAGVHWECEC: < -0.25; TKRLCPRTTRGRPGSAWLKF: < -0.25; PPLLTVTGRLPESQLSEERV: < -0.25. Next, VAGFDLPTVFGMSLNEGLPV: < -0.25; DVIYTEPEKS: < -0.25; CLEHCTRKIKEYHGWPKVPK: < -0.25. Consider FPKARFDAINRAMCGTYLTN, for which the growth estimate was < -0.25. In the case of VLA, the growth estimate is < -0.25. For the substance ENLEVKVGISSLPSTPSKYV, the growth estimate was < -0.25. As for TRGRYTAFGGTLDVSRLNHE, the figure is < -0.25. Next, EYTIAT: < -0.25; VEISETLLSNGC: < -0.25; HSLRA: < -0.25. Next, RSLYGVPRPYVPRAGSREAL: < -0.25; AARSEGLGYASKIQVRGVKR: < -0.25. Take RDERELPVTVTQ: the growth estimate is < -0.25. As for QPGGQSGRFGLAVSQ, the figure is < -0.25.

In the case of ATAQSSARVEREHKIHILRN, the growth estimate was < -0.25. As for MASSRF, the figure is < -0.25. Next, GGKY: < -0.25; VLRRGDVIEPR: < -0.25. Regarding DEVIKGPADCWIKG, the growth estimate is < -0.25.

PNVGHLLSVGSRVNLELTPW: the growth estimate is < -0.25.

On to YIFGVE, for which the growth estimate is < -0.25. As for MLR, the figure is < -0.25. As for WHPLYDRQKEGPVI, the figure is -0.189. Regarding FPLVIKHSLGHHCVHPVQVL, the growth estimate was < -0.25. For WGREPLV, the growth estimate was < -0.25. As for LAYVKYESPMGAGLSDPRVC, the figure is < -0.25; as for VWHTRTQRVSSKYWDCPPVT, < -0.25. TSGLGTCINKVPNGAFLPAC: the growth estimate is < -0.25. For RSGFRYCRRRVRL, the growth estimate was < -0.25. Next, CLAVSLSGYSHELGSLLVLP: < -0.25. Next, GLLCERSML: < -0.25; VGEDNRLFPSAGKFALA: < -0.25; CTYGTDRTWIGSSGTGITVS: < -0.25. Next, VVMQVYPNQVEAGYYSV: < -0.25; RVRSHHGRLARDGRFALGSL: < -0.25; CKRSFD: < -0.25.

EVAYYGQLVQNCRQLQGRPG: the growth estimate is < -0.25.

For RFFDQRVRGGRLINATTRGG, the growth estimate was < -0.25. As for INIAVPPHLAGVSLVTPLVP, the figure is < -0.25; as for SDRDDGGLSQLKT, < -0.25. As for LTSKWAGKLVQPAMPGTQRN, the figure is < -0.25; as for RLKKLGSSL, < -0.25; as for FEYLQQFSIMGSNICRRLVT, < -0.25. Next, ENW: < -0.25; SPGK: < -0.25. As for VCSGKSDQLSTNMSYREARI, the growth estimate was < -0.25. As for TNYAGSHDDPRTSMMAV, the figure is < -0.25. Next, LSEISNF: -0.23. As for CTLTLATRCVLKDTQVPPVW, the figure is < -0.25. Regarding IAYESPEQREKPYYGPRNDK, the growth estimate is < -0.25. KHMGREEISVMWVGPLQGLG: the growth estimate was < -0.25. As for TAEPVFKQVRRRAHKVCTKP, the figure is < -0.25; as for KGQCPRLASNLDTGSTTASR, < -0.25; as for FVDPLMFRDVWSCTVL, < -0.25. As for LLPTVVCDELLALARHSLP, the growth estimate was < -0.25. As for LGVDKRSNHRGNGR, the figure is < -0.25. Consider PEYYHMRHFHHGVIPRRVRR, for which the growth estimate was < -0.25. Next, RAHNYNEPRQASNSCRDLKY: < -0.25. Turning to QSRAALARHLSGPASSSTLL, the growth estimate was < -0.25. As for RRGKTPIRHGILLPRSISGR, the figure is < -0.25.

As for GSIIRRGVTMRH, the growth estimate was < -0.25.

With GGTMG, the growth estimate is < -0.25. As for QTVI, the figure is < -0.25.

For GPRGSTKQDFHNAGHSGTPR, the growth estimate is < -0.25. Next, RYNRGIRFGAPVDTRST: < -0.25; YRSNPAGADTITRTLHL: < -0.25. As for VRSRALPLIDSYRSVQSHYG, the figure is < -0.25; as for LKVERH, < -0.25.

Turning to IASRQAVFRPGVTGCATR, the growth estimate is < -0.25.

Regarding SKGKHAISKRVGTGPFHRAT, the growth estimate is < -0.25. As for VDFISMSNPLW, the figure is < -0.25.
